# Source: the supplement of paper PMC10849652
# Protein sequences, listed by entry. Tags and fused reporters are not part of them. Lines headed by an entry give the natural chain unless they say otherwise; changes in a name come on top.
# UniProt Q5JUR7: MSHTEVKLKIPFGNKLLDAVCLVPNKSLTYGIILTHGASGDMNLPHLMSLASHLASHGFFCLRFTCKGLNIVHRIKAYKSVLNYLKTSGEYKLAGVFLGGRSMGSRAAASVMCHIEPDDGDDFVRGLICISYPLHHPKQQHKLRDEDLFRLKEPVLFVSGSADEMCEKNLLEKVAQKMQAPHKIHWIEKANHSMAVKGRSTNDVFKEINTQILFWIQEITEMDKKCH
# UniProt P02787, whole entry, looked up: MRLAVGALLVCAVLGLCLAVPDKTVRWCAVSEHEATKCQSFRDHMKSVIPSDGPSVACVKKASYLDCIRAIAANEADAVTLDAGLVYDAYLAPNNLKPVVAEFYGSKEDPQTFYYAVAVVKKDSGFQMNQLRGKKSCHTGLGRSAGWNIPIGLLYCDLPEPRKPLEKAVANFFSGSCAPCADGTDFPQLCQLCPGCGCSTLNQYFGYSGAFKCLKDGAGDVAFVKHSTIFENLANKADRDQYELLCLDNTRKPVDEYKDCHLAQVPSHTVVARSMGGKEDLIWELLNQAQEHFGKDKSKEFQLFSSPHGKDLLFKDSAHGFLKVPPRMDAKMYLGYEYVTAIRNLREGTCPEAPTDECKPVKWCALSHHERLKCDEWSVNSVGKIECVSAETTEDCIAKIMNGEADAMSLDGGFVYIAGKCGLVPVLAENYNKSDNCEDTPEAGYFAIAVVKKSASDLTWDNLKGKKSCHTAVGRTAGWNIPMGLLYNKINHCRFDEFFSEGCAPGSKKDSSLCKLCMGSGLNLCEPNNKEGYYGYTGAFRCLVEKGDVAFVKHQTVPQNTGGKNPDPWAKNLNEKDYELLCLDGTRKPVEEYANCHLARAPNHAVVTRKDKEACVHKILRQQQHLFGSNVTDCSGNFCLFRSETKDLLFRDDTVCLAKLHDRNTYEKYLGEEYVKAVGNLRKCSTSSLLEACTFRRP
# UniProt O15533, whole entry, looked up: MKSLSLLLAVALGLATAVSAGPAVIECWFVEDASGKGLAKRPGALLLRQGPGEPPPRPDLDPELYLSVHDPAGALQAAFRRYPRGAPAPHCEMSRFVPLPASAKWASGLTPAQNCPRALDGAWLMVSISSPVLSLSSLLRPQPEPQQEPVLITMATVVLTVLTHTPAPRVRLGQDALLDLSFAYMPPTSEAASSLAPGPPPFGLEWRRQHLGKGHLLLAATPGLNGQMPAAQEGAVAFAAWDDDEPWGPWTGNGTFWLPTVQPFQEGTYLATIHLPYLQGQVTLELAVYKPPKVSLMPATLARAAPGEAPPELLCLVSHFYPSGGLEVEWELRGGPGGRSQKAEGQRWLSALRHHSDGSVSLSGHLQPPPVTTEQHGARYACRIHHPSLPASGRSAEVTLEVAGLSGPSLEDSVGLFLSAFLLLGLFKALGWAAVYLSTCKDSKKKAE
# UniProt Q96MN5: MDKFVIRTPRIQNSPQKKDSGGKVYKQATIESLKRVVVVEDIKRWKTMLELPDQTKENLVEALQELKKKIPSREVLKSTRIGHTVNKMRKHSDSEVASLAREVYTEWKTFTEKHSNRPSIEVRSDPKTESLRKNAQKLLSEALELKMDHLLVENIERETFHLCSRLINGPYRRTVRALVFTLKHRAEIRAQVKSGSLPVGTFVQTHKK
# UniProt O60343: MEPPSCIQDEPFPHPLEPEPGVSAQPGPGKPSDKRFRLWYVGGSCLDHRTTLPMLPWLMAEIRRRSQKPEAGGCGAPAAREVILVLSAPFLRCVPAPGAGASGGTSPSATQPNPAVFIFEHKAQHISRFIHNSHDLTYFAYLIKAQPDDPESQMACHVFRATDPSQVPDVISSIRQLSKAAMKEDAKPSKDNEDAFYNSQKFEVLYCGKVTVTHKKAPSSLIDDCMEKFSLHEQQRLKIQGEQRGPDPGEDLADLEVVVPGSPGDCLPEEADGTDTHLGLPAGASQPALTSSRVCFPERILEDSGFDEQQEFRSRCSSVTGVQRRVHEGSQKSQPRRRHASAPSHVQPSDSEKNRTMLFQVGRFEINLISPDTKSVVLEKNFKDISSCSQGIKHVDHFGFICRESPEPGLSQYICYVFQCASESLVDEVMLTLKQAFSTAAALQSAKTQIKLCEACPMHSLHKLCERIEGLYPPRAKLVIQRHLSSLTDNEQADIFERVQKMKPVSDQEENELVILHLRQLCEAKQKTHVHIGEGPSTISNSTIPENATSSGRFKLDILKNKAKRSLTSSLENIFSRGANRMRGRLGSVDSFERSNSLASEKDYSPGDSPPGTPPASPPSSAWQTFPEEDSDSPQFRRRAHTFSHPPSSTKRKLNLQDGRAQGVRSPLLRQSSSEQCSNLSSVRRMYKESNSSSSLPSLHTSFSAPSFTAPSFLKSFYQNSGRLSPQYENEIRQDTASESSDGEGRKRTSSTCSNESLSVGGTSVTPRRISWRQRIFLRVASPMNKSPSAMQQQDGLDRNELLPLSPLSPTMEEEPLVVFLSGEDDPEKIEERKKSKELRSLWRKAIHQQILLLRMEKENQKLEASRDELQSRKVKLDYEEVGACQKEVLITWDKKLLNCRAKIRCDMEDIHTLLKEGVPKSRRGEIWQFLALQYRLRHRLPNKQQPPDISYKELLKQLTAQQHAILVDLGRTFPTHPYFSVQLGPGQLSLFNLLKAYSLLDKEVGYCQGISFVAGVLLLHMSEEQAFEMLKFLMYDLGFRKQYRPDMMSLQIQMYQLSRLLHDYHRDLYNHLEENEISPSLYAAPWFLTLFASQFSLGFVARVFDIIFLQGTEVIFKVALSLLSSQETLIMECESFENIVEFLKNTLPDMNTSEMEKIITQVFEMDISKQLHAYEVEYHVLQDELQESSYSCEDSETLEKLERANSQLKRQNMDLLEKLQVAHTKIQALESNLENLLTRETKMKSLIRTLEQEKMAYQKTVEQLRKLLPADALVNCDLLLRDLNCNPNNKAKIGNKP
# UniProt Q9BT92: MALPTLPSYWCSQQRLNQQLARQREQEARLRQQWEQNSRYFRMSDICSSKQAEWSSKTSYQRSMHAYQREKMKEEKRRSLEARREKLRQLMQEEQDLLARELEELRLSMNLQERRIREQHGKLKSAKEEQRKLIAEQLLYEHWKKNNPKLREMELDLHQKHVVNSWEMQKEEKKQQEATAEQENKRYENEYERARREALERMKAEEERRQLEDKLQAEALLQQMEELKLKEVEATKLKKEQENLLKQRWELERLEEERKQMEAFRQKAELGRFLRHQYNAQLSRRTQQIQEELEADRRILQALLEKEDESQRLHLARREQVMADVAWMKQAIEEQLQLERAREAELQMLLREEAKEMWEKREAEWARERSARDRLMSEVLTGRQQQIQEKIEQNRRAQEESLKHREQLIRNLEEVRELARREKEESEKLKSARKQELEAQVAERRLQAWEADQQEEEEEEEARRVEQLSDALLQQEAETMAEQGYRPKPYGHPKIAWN
# UniProt Q9UHQ7: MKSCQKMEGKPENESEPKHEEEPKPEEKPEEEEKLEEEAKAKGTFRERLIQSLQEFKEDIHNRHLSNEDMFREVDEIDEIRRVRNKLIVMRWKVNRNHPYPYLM
# UniProt Q99081: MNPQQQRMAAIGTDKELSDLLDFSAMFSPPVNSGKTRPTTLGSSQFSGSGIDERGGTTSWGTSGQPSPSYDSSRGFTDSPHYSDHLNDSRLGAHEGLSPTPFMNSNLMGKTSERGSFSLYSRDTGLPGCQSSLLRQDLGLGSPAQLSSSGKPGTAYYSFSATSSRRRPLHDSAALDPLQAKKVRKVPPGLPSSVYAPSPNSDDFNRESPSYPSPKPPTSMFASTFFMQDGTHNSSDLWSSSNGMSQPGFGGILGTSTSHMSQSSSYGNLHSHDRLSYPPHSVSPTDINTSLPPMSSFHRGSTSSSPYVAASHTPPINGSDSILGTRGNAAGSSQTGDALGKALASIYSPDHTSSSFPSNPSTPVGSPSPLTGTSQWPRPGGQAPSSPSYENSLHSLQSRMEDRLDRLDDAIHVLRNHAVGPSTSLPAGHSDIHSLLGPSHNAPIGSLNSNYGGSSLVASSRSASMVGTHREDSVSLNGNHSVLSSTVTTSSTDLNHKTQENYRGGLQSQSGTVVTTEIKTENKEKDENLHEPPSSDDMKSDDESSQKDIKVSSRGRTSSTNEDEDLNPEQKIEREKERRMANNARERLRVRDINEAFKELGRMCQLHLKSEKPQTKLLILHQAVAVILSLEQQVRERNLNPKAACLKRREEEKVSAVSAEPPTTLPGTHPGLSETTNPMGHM
# UniProt Q3MII6: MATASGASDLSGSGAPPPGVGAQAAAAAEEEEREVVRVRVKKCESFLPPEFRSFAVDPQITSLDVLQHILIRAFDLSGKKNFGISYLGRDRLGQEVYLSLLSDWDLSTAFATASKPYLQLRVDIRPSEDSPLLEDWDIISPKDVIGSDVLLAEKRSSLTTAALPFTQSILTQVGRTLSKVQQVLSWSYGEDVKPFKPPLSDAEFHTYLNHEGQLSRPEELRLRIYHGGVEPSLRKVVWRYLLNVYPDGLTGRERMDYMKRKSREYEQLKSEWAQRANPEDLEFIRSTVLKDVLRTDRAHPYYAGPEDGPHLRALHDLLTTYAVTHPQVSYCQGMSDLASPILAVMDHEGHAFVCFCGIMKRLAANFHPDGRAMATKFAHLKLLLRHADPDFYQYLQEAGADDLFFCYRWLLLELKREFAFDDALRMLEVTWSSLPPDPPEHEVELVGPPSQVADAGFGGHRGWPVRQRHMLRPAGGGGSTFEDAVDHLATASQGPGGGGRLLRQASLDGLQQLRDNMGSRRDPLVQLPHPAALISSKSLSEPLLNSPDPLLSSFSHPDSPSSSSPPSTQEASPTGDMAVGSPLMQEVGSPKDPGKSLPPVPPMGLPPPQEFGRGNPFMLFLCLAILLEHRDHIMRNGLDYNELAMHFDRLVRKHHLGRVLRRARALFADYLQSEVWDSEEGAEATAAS
# UniProt Q15545, whole entry, looked up: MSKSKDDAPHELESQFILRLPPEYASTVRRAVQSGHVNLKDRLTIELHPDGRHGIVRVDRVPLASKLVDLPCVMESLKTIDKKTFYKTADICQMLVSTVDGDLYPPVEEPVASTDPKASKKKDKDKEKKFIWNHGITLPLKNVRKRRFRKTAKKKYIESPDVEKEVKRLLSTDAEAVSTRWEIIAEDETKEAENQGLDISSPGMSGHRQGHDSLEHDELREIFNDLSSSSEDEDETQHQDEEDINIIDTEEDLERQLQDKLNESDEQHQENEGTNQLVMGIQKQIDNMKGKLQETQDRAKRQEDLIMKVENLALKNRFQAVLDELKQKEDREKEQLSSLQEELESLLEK
# UniProt Q15813: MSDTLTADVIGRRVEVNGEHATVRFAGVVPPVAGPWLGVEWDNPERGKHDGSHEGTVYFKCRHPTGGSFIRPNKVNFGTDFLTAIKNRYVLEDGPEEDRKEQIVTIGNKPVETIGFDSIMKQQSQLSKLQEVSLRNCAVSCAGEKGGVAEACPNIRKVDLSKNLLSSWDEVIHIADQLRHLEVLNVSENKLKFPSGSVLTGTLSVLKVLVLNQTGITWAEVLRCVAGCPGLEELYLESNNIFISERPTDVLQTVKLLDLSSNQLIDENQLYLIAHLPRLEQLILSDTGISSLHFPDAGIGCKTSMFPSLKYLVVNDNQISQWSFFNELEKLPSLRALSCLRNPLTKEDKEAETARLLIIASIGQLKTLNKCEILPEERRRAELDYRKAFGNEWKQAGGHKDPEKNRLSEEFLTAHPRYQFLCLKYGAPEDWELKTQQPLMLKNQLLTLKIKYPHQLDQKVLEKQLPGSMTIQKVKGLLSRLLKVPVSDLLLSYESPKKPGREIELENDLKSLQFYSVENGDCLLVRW
# UniProt Q9HA65: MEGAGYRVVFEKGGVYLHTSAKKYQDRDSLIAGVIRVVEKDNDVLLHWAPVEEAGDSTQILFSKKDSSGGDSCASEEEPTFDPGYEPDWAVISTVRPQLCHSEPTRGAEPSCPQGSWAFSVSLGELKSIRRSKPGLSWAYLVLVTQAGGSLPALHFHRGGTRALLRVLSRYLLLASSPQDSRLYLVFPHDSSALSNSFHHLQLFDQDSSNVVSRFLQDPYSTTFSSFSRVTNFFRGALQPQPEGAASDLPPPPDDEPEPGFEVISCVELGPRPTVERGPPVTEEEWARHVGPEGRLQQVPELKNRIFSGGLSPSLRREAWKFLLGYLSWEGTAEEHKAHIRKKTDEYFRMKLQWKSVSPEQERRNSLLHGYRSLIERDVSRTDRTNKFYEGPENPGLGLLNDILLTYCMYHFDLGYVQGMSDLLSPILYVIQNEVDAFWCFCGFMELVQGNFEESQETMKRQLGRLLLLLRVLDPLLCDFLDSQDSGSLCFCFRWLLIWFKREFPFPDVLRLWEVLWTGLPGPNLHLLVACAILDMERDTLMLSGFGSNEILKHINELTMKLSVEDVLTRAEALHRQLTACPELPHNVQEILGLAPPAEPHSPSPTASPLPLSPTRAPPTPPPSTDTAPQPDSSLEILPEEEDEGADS
# The list shows a part of the results.
# Legend:
# Experiment in all cases: log2 fold change, soluble protein after heating vs DMSO (PISA); higher = thermal stabilisation; K562 lysate, 10 uM; active = over 0.2 and 3.5 SD of the protein, either way, in both replicates (recomputed)
# [1] = compound: NCC(=O)Nc1ccc(-n2nc(C(F)(F)F)cc2-c2ccc3c(ccc4ccccc43)c2)cc1
# Method in brief: (§1)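 Dounce homogenisation of K562 pellets in PBS pH 7.4 with 1 mM MgCl2 produced a crude extract, used at 1 mg/mL protein. Exposure to 10 μM compound lasted 30 min, and aliquots were then heated for 3 min across 48°C-58°C, pooled and brought to 0.5% NP-40 at 4°C. The supernatant after 21,000xg for 90 min was quantified by TMTpro 16plex LC-MS/MS with channel sums equalised. Duplicate values are given as log-two fold change in thermal stability relative to solvent controls.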
# vorinostat = compound: O=C(CCCCCCC(=O)Nc1ccccc1)NO [vorinostat]
# Method in brief: as §1
# silmitasertib = compound: O=C(O)c1ccc2c(c1)nc(Nc1cccc(Cl)c1)c1ccncc12 [silmitasertib]
# Method in brief: as §1
# [2] = compound: O=C1NC(=O)C(c2cnc3ccccn23)=C1c1cn2c3c(cc(F)cc13)CN(C(=O)N1CCCCC1)CC2
# Method in brief: as §1
# entospletinib = compound: c1cn2cc(-c3ccc4cn[nH]c4c3)nc(Nc3ccc(N4CCOCC4)cc3)c2n1 [entospletinib]
# Method in brief: as §1
Target,log2 fold change [1],log2 fold change (vorinostat),log2 fold change (silmitasertib),log2 fold change [2],log2 fold change (entospletinib)
TEX30 (UniProt Q5JUR7),inactive: 0.035,active: -0.534,inactive: 0.041,inactive: -0.006,inactive: 0.001
TF (UniProt P02787),inactive: -0.008,inactive: 0.173,inactive: -0.07,inactive: 0.029,inactive: 0.033
TCP11L2 (UniProt Q8N4U5),inactive: 0.014,inactive: -0.16,inactive: 0.05,,inactive: -0.104
TAPBP isoform 3 (UniProt O15533),inactive: -0.015,inactive: 0.211,inactive: -0.084,inactive: 0.052,inactive: 0.047
TCEANC2 (UniProt Q96MN5),inactive: -0.067,inactive: -0.122,inactive: 0.056,,inactive: -0.068
TBC1D4 (UniProt O60343),inactive: -0.017,inactive: -0.19,inactive: -0.012,inactive: -0.017,inactive: -0.035
TCHP (UniProt Q9BT92),inactive: 0.089,inactive: -0.112,inactive: 0.014,inactive: -0.01,inactive: -0.073
TEAD1 (UniProt P28347),inactive: 0.08,inactive: -0.077,inactive: -0.099,,inactive: -0.095
TBC1D5 isoform 2 (UniProt Q92609),inactive: 0.02,inactive: -0.07,inactive: 0.034,inactive: 0.064,inactive: 0.008
TCEAL9 (UniProt Q9UHQ7),inactive: -0.095,,,inactive: 0.003,
TFPI (UniProt P10646),inactive: 0.067,inactive: 0.106,inactive: 0.01,inactive: -0.063,inactive: -0.057
TCF12 isoform 3 (UniProt Q99081),inactive: -0.016,active: -0.263,inactive: -0.024,inactive: -0.004,inactive: 0.006
TBC1D25 (UniProt Q3MII6),inactive: -0.011,inactive: 0.219,inactive: -0.059,inactive: -0.018,inactive: 0.006
TAF7 (UniProt Q15545),inactive: -0.005,inactive: 0.07,inactive: -0.025,inactive: -0.036,inactive: -0.014
TBC1D23 (UniProt Q9NUY8),inactive: 0.031,active: -0.252,inactive: -0.023,inactive: -0.001,inactive: 0
TBCE (UniProt Q15813),inactive: -0.029,active: -0.27,inactive: 0.018,inactive: -0.025,inactive: 0.021
TBC1D17 (UniProt Q9HA65),inactive: -0.141,inactive: -0.055,inactive: -0.012,inactive: -0.06,inactive: -0.027

# Copied from the list.
# TCP11L2 (UniProt Q8N4U5) | log2 fold change [1]: inactive: 0.014
# TAPBP isoform 3 (UniProt O15533) | log2 fold change [1]: inactive: -0.015
